For at least one compound, name, drawing or mass did not settle the structure.
Columns and labels:
[1] = system: IL5+ ILC2s from the blood; experiment: Steroid response of blood IL5+ ILC2s by flow cytometry; format: cell-based, human; conditions: blood MNC from asthmatic patients, Dex 10^−7M, 3 days
Procedure: (§1) FIGS. 1A and 1B show the effect of dexamethasone (Dex) on blood (A) and bronchoalveolar lavage (BAL) (B) Type 2 innate lymphoid cells (ILC2s). Peripheral blood mononuclear cells (PBMC) and BAL cells from an asthmatic patient were cultured with vehicle (V, ethanol)) or dexamethasone (Dex 10^−7M), a synthetic steroid, for 3 days. The frequency of lin−CRTH2+IL7Rα+IL5+ cells (considered as markers of ILC2s) was measured by flow cytometry (FCM) and analyzed by FlowJo. Frequency of dead cells (measured by e-Fluor 780, e-Bioscience) was less than 10% and excluded from the gating. The difference in dead cells between V and Dex was less than 10%). Prostaglandin D2 receptor 2 (CRTH2); interleukin-7 receptor alpha (IL7Rα); interleukin-5 (IL-5).
FIGS. 1C and 1D show the cumulative data on the effect of dexamethasone (Dex) on blood (FIG. 1C) and BAL (FIG. 1D) lin−CRTH2+IL7Rα+IL5+ cells from 14 allergic asthmatic patients.
(§2) Steroid response of ILC2s from the bronchoalveolar lavage (BAL, obtained during bronchoscopy) and blood obtained from asthmatic patients was studied. Blood was processed to isolate mononuclear cells (MNC). BAL cells were studied without further processing. […] Interluekin-5 (IL5)-expressing ILC2s were examined by flow cytometry and analyzed by FlowJo. […] Frequency of dead cells (measured by e-Fluor 780, e-Bioscience) was less than 10% and excluded from the gating. […]

[2] = system: BAL IL5+ ILC2s; experiment: Steroid response of BAL IL5+ ILC2s by flow cytometry; format: cell-based, human
Procedure: as §1, with “(IL-5). […]” for “(IL-5).”
BAL cells were cultured with MS (100 μM) with and without Dex (10^−7M) for 3 days. IL5 expression by lin−CRTH2+IL7Rα+ ILC2s was measured by FCM (N=8, *: P=0.0006 by Kruskal Walis test).
as §2, with “studied.” for “studied. Blood was processed to isolate mononuclear cells (MNC). BAL cells were studied without further processing.”

[3] = system: lin− cells; experiment: PBMC culture with ILC2-stimulating cytokines with or without Dex; format: cell-based, human; conditions: PBMCs with ILC2-stimulating cytokines with or without Dex
[4] = system: IL5+lineage+ BAL cells; experiment: Steroid resistance of IL5+lineage+ BAL cells; format: cell-based, human; conditions: BAL cells cultured with vehicle or Dex for 5 days
[5] = system: CRTH2+, IL7Rα+, CD25+, TSLPR+, ST2+, and IL25R+ ILCs; experiment: ILC receptor expression after PBMC culture with Dex; format: cell-based, human; conditions: Dex 10^−7M
[6] = system: pSTAT5+ lin−CRTH2+IL7Rα+ cells; experiment: IL2/TSLP induced phospho-STAT5 in ILCs after Dex preculture; format: cell-based, human; conditions: preculture with Dex 10^−7M 3 days, then IL2/TSLP 10 ng/ml each
[7] = system: IL5+ lin−CRTH2+IL7Rα+ cells; experiment: TSLP dose response of IL5+ ILC2s after Dex preculture; format: cell-based, human; conditions: preculture with Dex 10^−7M 3 days, then TSLP doses plus 2 ng/ml IL2 for 3 days
[8] = system: MEK1/2 in ILC2s; experiment: Cytokine-induced MEK1/2 in ILC2s by FCM; format: cell-based, human; conditions: PBMCs, IL2 plus IL33 with and without Dex, 5 days, lin−CRTH2+ cells
Procedure: FIGS. 4A and 4B show the effect of Dex on cytokine-induced MEK1 (MEK) induction. PBMCs from an asthmatic patient were cultured with medium or IL2 plus one of the two epithelial ILC-inducing cytokines—IL33 and TSLP with and without Dex for 5 days. The expression of MEK on gated live lin−CRTH2+ cells was analyzed by FCM.
Heightened MEK1/2 mediates steroid resistance of lymphocytes. The effect of IL33 and TSLP on MEK1/2 induction and the effect of Dex was examined.

[9] = system: Sorted Lin−CD45+CD25+ cells from the human lung; experiment: Steroid resistant gene mRNA by real-time PCR in lung ILCs; format: cell-based; conditions: 3 days
[10] = system: MEK2+ & CBX7+ ILCs; experiment: MEK2+ and CBX7+ ILCs by FCM; format: cell-based; conditions: human ILCs, 5 days
[11] = system: IL4+ and IL4/IL17+ ILCs; experiment: IL4+ and IL4/IL17A+ blood ILCs by FCM; format: cell-based, human; conditions: blood lin− cells, IL1β/IL2, 7 days, Dex 10^−7M or MS
[12] = system: CBX7 binding to the promoter of IL4 gene; experiment: ChIP of CBX7 binding to the IL4 promoter in CD4 T cells; format: cell-based, human; conditions: anti-CD3/CD28 stimulated CD4 T cells, Tram 10 μM

Question: For `C[C@@H]1C[C@H]2[C@@H]3CCC4=CC(=O)C=C[C@]4(C)[C@@]3(F)[C@@H](O)C[C@]2(C)[C@@]1(O)C(=O)CO` [Dex, dexamethasone], which “inhibition of IL5+ ILC2s (Lin−CRTH2+IL7Rα+)” value [1] is on record?
Answer: The value was “significantly inhibited”.

Question: And the “inhibition of IL5+ ILC2s (Lin−CRTH2+IL7Rα+)” value ([2]; BAL cells from asthmatic patients, Dex 10^−7M, 3 days)?
Answer: Its value is “not BAL”.

Question: What about the “number of IL5+ ILC2s” value ([2]; BAL cells, 5 days, in some patients) of the same compound?
Answer: Its value is “increased”.

Question: What about the “number of lin− cells in the culture” value [3] of the same compound?
Answer: The value was “did not significantly change”.

Question: What about the “steroid response of IL5+lineage+ BAL cells” value [4] of the same compound?
Answer: Its value is “steroid resistant”.

Question: And the “expression of CD25” value [5]?
Answer: Its value is “upregulated”.

Question: What about the “expression of CRTH2” value [5] of the same compound?
Answer: The value was “inhibited”.

Question: And the “expression of IL7Rα” value [5]?
Answer: The value was “upregulated”.

Question: And the “expression of IL25R” value [5]?
Answer: The value was “negligible effect”.

Question: And the “expression of ST2” value [5]?
Answer: The value was “negligible effect”.

Question: And the “expression of TSLPR” value [5]?
Answer: The value was “upregulated”.

Question: And the pSTAT5 signaling [6]?
Answer: The pSTAT5 signaling was “amplified the magnitude and duration”.

Question: What about the “reduction of threshold for TSLP activation of ILC2s” value [7] of the same compound?
Answer: The value was “two-fold”.

Question: What about the “IL33-induced MEK1/2” value [8] of the same compound?
Answer: The value was “inhibited”.

Question: What about the “TNFRSF19 expression by IL33” value ([9]; IL2/IL33, Dex 10^−7M) of the same compound?
Answer: The value was “antagonized”.

Question: What about the “TNFRSF19 expression by TSLP” value ([9]; IL2/TSLP, Dex 10^−7M) of the same compound?
Answer: Its value is “protagonized”.

Question: And the “induction of CBX7, MAP2K2 and TLR2 by TSLP” value ([9]; IL2/TSLP, Dex 10^−7M)?
Answer: The value was “protagonized”.

Question: What about the “expression of CBX7, MAP2K2 (MEK2) and TLR2 mRNA” value ([9]; both stimulants (IL33, TSLP), Dex 10^−7M) of the same compound?
Answer: Its value is “steroid resistant”.

Question: What about the “expression of AKT3, ARID5, ICT1 and SES2 mRNA” value ([9]; stimulation with IL33 or TSLP, Dex 10^−7M) of the same compound?
Answer: The value was “steroid sensitive”.

Question: What about the “IL33 induction of MEK2 and CBX7 proteins” value [10] of the same compound?
Answer: The value was “did not affect”.

Question: And the “TSLP induction of MEK2 and CBX7 proteins” value [10]?
Answer: Its value is “augmented”.

Question: What about the “IL4/IL17A+ ILCs” value [11] of the same compound?
Answer: The value was “resistant”.

Question: How did the “CBX7 binding to the promoter of IL4 gene” value [12] turn out when `CC(=O)Nc1cccc(-n2c(=O)n(C3CC3)c(=O)c3c(Nc4ccc(I)cc4F)n(C)c(=O)c(C)c32)c1` [Trametinib] was run?
Answer: The value was “significantly blocked”.
